These are yes or no findings as the source states them, for the method shown. In cells and extracts the contact can be indirect. For some assays here: Binding can be weak; no strength is given.
How the values were obtained:
[1] = biological target: ArtinM (Artocarpus heterophyllus (jackfruit)); assay: co-IP; lectin immunoprecipitation: 100 µg lysate protein incubated with 10 µg ArtinM for 16 h at 4 °C, then 10 µg purified anti-ArtinM immunoglobulin Y added; centrifuged, washed with ice-cold acetone; western blot with anti-CD14 or anti-TLR2; only the target purified
[2] = biological target: ArtinM (Artocarpus heterophyllus (jackfruit)); assay: condition: only ArtinM pre-incubated with Manα1-3(Manα1-6)Man (1 mM); co-IP; as the lectin immunoprecipitation, but with ArtinM pre-incubated with Manα1-3(Manα1-6)Man (1 mM); only the target purified

- binding [1]: binds
- binding [2]: no binding
B1: CD14 (receptor, UniProt P08571 20-345)
chain: TTPEPCELDDEDFRCVCNFSEPQPDWSEAFQCVSAVEVEIHAGGLNLEPFLKRVDADADPRQYADTVKALRVRRLTVGAAQVPAQLLVGALRVLAYSRLKELTLEDLKITGTMPPLPLEATGLALSSLRLRNVSWATGRSWLAELQQWLKPGLKVLSIAQAHSPAFSCEQVRAFPALTSLDLSDNPGLGERGLMAALCPHKFPAIQNLALRNTGMETPTGVCAALAAAGVQPHSLDLSHNSLRATVNPSAPRCMWSSALNSLNLSFAGLEQVPKGLPAKLRVLDLSCNRLNRAPQPDELPEVDNLTLDGNPFLVPGTALPHEGSMN

— PMC5539197, “CD14 is critical for TLR2-mediated M1 macrophage activation triggered by N-glycan recognition” (Scientific Reports, 2017)
